PubChem BioAssay AID652259 – Drosophila RNAi Screening Center | 2013

Assay: 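Genome-wide hunt for genes that control Wingless pathway activity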 (primary screen)
System: Drosophila clone 8 imaginal disc epithelial cells
Reagents: long dsRNA against Drosophila genes
Challenge: pathway stimulated by co-transfected Wingless expression plasmid
Measurement: 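Firefly luciferase from a tcf-site Wingless reporter, measured alongside co-transfected Renilla luciferase that tracks transfection; pathway stimulated by a Wingless plasmid; the firefly-to-Renilla ratio is not deposited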
Scale: firefly reporter light: higher = more Wg reporter light, before normalisation; Renilla control light: higher = more transfected or surviving cells
Hit rule: 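a knock-down is a candidate when at least two out of four statistical tests show it departing from its plate mean; one test alone signals a weak candidate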
Meaning of the calls: active = candidate regulator (raises or lowers reporter); inactive = not a candidate
In all, the deposit lists about 22,000 reagents; below is an unselected part of those with a known target gene and a result. In the full data, 233 (1.1%) were called active. 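Light values are raw, unnormalised plate reads; the ratio scores behind the reporter calls were not deposited.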 Entries without a mark were called inactive. Not given: the amount of reagent, the time to read-out, the dose of the treatment.

CG12692 [DRSC17881]
- firefly reporter light, replicate 1: 22820
- Renilla control light, replicate 1: 7794

CG42525 [DRSC08026]
- firefly reporter light, replicate 1: 3218
- Renilla control light, replicate 1: 1562

wek [DRSC03561]
- firefly reporter light, replicate 1: 6023
- Renilla control light, replicate 1: 2240

CG2712 [DRSC18589]
- firefly reporter light, replicate 1: 2931
- firefly reporter light, replicate 2: 7223
- Renilla control light, replicate 1: 1361
- Renilla control light, replicate 2: 2373

CG6231 [DRSC15997]
- firefly reporter light, replicate 1: 15062
- Renilla control light, replicate 1: 2160

Atg14 [DRSC14421]
- firefly reporter light, replicate 1: 2293
- firefly reporter light, replicate 2: 4651
- Renilla control light, replicate 1: 806
- Renilla control light, replicate 2: 2064

Khc [DRSC07448]
- firefly reporter light, replicate 1: 19446
- Renilla control light, replicate 1: 5495

CG43393 [DRSC03917]
- firefly reporter light, replicate 1: 16048
- Renilla control light, replicate 1: 8426

Damm [DRSC07393]
- firefly reporter light, replicate 1: 8224
- Renilla control light, replicate 1: 2713

ppk19 [DRSC15321]
- firefly reporter light, replicate 1: 5349
- Renilla control light, replicate 1: 3002

CG34376 [DRSC14695]
- firefly reporter light, replicate 1: 36361
- Renilla control light, replicate 1: 6889

CG34376 [DRSC14696]
- firefly reporter light, replicate 1: 39879
- Renilla control light, replicate 1: 7015

CG34376 [DRSC14701]
- firefly reporter light, replicate 1: 38020
- Renilla control light, replicate 1: 8419

spdo [DRSC13988]
- firefly reporter light, replicate 1: 3107
- Renilla control light, replicate 1: 1050

Scp2 [DRSC13166]
- firefly reporter light, replicate 1: 4748
- Renilla control light, replicate 1: 1952

Scp2 [DRSC16854]
- firefly reporter light, replicate 1: 15466
- Renilla control light, replicate 1: 3350

Ack [DRSC08135]
- firefly reporter light, replicate 1: 4307
- Renilla control light, replicate 1: 1691

CG13594 [DRSC04229]
- firefly reporter light, replicate 1: 3312
- firefly reporter light, replicate 2: 9526
- Renilla control light, replicate 1: 873
- Renilla control light, replicate 2: 2677

CG33272 [DRSC09116]
- firefly reporter light, replicate 1: 2496
- Renilla control light, replicate 1: 1287

Fas2 [DRSC17308]
- firefly reporter light, replicate 1: 2711
- Renilla control light, replicate 1: 1216

Fas2 [DRSC17309]
- firefly reporter light, replicate 1: 3180
- Renilla control light, replicate 1: 1125

Fas2 [DRSC18664]
- firefly reporter light, replicate 1: 2233
- firefly reporter light, replicate 2: 6807
- Renilla control light, replicate 1: 1168
- Renilla control light, replicate 2: 2324

CG7840 [DRSC03075]
- firefly reporter light, replicate 1: 13669
- Renilla control light, replicate 1: 6507

Irk3 [DRSC02047]
- firefly reporter light, replicate 1: 1972
- firefly reporter light, replicate 2: 6256
- Renilla control light, replicate 1: 544
- Renilla control light, replicate 2: 3225

Nrt [DRSC11237]
- firefly reporter light, replicate 1: 2236
- Renilla control light, replicate 1: 971

Usp30 [DRSC18265]
- firefly reporter light, replicate 1: 27840
- Renilla control light, replicate 1: 8746

mRpL48 [DRSC00506]
- firefly reporter light, replicate 1: 4080
- firefly reporter light, replicate 2: 12330
- Renilla control light, replicate 1: 1028
- Renilla control light, replicate 2: 3219

Sod3 [DRSC07324]
- firefly reporter light, replicate 1: 10962
- Renilla control light, replicate 1: 4068

CG6428 [DRSC18402]
- firefly reporter light, replicate 1: 18193
- Renilla control light, replicate 1: 6723

Andorra [DRSC19475]
- firefly reporter light, replicate 1: 24291
- Renilla control light, replicate 1: 10288

CG33140 [DRSC06030]
- firefly reporter light, replicate 1: 9488
- Renilla control light, replicate 1: 2889

Sym [DRSC12301]
- firefly reporter light, replicate 1: 3862
- Renilla control light, replicate 1: 2244

Entries above whose gene name starts with A or a (3):
Atg14 [DRSC14421]
- firefly reporter light, replicate 1: 2293
- firefly reporter light, replicate 2: 4651
- Renilla control light, replicate 1: 806
- Renilla control light, replicate 2: 2064

Ack [DRSC08135]
- firefly reporter light, replicate 1: 4307
- Renilla control light, replicate 1: 1691

Andorra [DRSC19475]
- firefly reporter light, replicate 1: 24291
- Renilla control light, replicate 1: 10288
